Experimental data: publication PMC9459403, “New inhibitors of cathepsin V impair tumor cell proliferation and elastin degradation and increase immune cell cytotoxicity” (Computational and Structural Biotechnology Journal, 2022)
Results are given in words; binding and its absence hold for the method and conditions named. Some results given as binding are weak or reduced against the parent protein; the word gives no strength.

Biological target: cystatin F (human (endogenous in U-937)) (UniProt O76096)
Experiment: non-reducing SDS-PAGE with western blot; whole-cell lysates of U-937 cells in RIPA buffer; cells treated for 6 h with DMSO (0.1 %), E-64d or compound 7 (10 or 20 uM); blot with anti-cystatin F

B1: cystatin F (protein, UniProt O76096 20-145)
chain: GPSPDTCSQDLNSRVKPGFPKTIKTNDPGVLQAARYSVEKFNNCTNDMFLFKESRITRALVQIVKGLKYMLEVEIGRTTCKKNQHLRLDDCDFQTNHTLKQTLSCYSEVWVVPWLQHFEVPVLRCH
modifications: multiple N-glycosylation forms (sites not given)
**Q.** For B1, which binding is on record?
**A.** binds
